This passage reports binding results from PMC11653673.

Amino acid sequences for entries named in this document (tags omitted). Residues count along the entry.
UniProt Q8BMS1, residues 37-763: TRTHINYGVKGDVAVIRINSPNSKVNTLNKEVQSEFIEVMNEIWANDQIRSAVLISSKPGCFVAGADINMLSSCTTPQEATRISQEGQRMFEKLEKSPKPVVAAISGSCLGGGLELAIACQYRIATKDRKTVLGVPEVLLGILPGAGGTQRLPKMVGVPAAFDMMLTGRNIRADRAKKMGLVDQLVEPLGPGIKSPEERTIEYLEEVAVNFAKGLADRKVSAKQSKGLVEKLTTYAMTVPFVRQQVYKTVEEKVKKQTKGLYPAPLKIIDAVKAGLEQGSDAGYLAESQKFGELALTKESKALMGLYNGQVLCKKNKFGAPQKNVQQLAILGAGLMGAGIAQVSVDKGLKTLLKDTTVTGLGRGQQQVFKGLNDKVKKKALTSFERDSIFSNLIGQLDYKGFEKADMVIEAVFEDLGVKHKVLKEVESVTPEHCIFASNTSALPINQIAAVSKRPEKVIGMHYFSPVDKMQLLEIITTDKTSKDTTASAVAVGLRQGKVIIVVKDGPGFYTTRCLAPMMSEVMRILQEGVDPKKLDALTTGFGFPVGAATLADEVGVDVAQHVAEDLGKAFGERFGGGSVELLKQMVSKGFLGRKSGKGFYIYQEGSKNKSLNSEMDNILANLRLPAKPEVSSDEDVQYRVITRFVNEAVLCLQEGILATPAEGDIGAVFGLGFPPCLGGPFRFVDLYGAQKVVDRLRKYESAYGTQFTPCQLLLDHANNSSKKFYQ
UniProt Q03265, residues 44-553: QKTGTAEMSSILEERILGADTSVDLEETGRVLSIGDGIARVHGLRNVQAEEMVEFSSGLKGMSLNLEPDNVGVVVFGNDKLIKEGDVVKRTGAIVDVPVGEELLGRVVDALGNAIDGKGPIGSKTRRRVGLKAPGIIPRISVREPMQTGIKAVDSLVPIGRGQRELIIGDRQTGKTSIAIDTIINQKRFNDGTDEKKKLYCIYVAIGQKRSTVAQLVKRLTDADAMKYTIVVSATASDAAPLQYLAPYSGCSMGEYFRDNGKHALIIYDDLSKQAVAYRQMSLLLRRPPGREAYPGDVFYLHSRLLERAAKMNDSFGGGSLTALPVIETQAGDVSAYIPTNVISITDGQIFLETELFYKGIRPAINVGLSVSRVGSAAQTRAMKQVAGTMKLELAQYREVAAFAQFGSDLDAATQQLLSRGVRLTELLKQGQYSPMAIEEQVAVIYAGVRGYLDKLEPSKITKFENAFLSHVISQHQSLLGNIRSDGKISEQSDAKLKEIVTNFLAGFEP
UniProt P03911: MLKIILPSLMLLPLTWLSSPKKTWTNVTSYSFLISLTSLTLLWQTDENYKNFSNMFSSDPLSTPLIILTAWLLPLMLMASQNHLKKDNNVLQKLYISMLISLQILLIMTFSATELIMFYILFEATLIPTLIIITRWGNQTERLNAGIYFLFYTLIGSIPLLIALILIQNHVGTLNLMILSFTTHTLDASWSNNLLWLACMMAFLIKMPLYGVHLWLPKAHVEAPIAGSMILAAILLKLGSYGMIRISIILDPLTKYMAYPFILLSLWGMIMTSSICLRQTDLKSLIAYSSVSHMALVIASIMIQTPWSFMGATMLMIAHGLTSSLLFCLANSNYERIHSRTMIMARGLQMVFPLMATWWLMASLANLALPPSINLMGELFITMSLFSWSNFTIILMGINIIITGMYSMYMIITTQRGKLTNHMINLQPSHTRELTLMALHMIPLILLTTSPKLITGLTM

Results are given in words; binding and its absence hold for the method and conditions named. For part of these data: In cells and extracts the contact can be indirect. Some binding calls cover weakened binding; strength is not graded here.

In test [1] the target is hydroxyacyl-CoA dehydrogenase trifunctional multienzyme complex subunit alpha (mouse (endogenous in A9, 4A and 4AR6 cells)) (UniProt Q8BMS1). The test is described as follows: co-IP; purified mitochondria of 4AR6 cells, 1% digitonin; anti-HADHA antibody overnight at 4 °C, protein G agarose beads; western blot. A general note: In western blotting, separated proteins are transferred to a membrane and probed.

Test [2] shares this target. Nature of the test: co-IP; purified mitochondria of 4A cells (control: no complete complex I, no supercomplexes), 1% digitonin; anti-HADHA antibody overnight at 4 °C, protein G agarose beads; western blot.
The target is the same in test [3]. The test is described as follows: co-IP; purified mitochondria of 4AR6 cells, 1% digitonin; anti-HADHA antibody overnight at 4 °C, protein G agarose beads; western blot. The source holds these as a separate data set.
For test [4] the target is unchanged. Nature of the test: co-IP; purified mitochondria of 4A cells (control: no complete complex I, no supercomplexes), 1% digitonin; anti-HADHA antibody overnight at 4 °C, protein G agarose beads; western blot. The source holds these as a separate data set.
The target is the same in test [5]. Nature of the test: native gel or EMSA; BN-PAGE (comigration) of digitonin-solubilised mitochondria of A9 and 4AR6 cells, western blot.

Consider “complex V subunit ATP5A (from UniProt Q03265 44-553)”, for which the binding entry in test [1] and in test [2] was “no binding” each time.

For “complex I membrane arm subunit ND4 (from UniProt P03911 1-459)”, the binding entry in test [1] and in test [2] was “binds” in each case.

B1: mitochondrial trifunctional protein subunit beta (protein, UniProt Q99JY0 35-475)
chain: SAPAVQTKSKKTLAKPNMKNIVVVEGVRIPFLLSGTSYKDLMPHDLARAALSGLLHRTNIPKDVVDYIIFGTVIQEVKTSNVAREAALGAGFSDKTPAHTVTMACISSNQAMTTAVGLIASGQCDVVVAGGVELMSDVPIRHSRNMRKMMLDLNKAKTLGQRLSLLSKFRLNFLSPELPAVAEFSTNETMGHSADRLAAAFAVSRMEQDEYALRSHSLAKKAQDEGHLSDIVPFKVPGKDTVTKDNGIRPSSLEQMAKLKPAFIKPYGTVTAANSSFLTDGASAMLIMSEDRALAMGYKPKAYLRDFIYVSQDPKDQLLLGPTYATPKVLEKAGLTMNDIDAFEFHEAFSGQILANFKAMDSDWFAQNYMGRKTKVGSPPLEKFNIWGGSLSLGHPFGATGCRLVMAAANRLRKDGGQYALVAACAAGGQGHAMIVEAYPK
As to B1, the binding entry in test [3], in test [4] and in test [5] was “binds” in each case.

B2: complex I membrane arm subunit ND2 (protein, UniProt P03893 1-345)
chain: MNPITLAIIYFTIFLGPVITMSSTNLMLMWVGLEFSLLAIIPMLINKKNPRSTEAATKYFVTQATASMIILLAIVLNYKQLGTWMFQQQTNGLILNMTLMALSMKLGLAPFHFWLPEVTQGIPLHMGLILLTWQKIAPLSILIQIYPLLNSTIILMLAITSIFMGAWGGLNQTQMRKIMAYSSIAHMGWMLAILPYNPSLTLLNLMIYIILTAPMFMALMLNNSMTINSISLLWNKTPAMLTMISLMLLSLGGLPPLTGFLPKWIIITELMKNNCLIMATLMAMMALLNLFFYTRLIYSTSLTMFPTNNNSKMMTHQTKTKPNLMFSTLAIMSTMTLPLAPQLIT
On to B2, for which the binding result in test [3] and in test [4] was “binds” in each case.
